In PubChem BioAssay AID485314 (National Center for Advancing Translational Sciences (NCATS), 2010):
The whole screen tested about 340,000 compounds, of which about 4,500 (1.3%) were called active. Inconclusive results, whose numbers are uncertain, are shown with a selection of clear calls. Calls come from the whole dose curve; as a rule, active = well fitted inhibition curve with a large enough effect; inconclusive = small, poorly fitted or top-dose-only effect, or another doubt; inactive = no such curve, though single readings can be large or run the other way. Potencies beside an inconclusive call are fits to weak or partial responses and may not hold up.

Each compound was assayed against DNA polymerase beta (Homo sapiens) (UniProt P06746) (assay: qHTS Assay for Inhibitors of DNA Polymerase Beta). Details: Pol beta primer extension/strand displacement, fluorescence kinetic; activity change, negative = inhibition: at 114 µM (top of the series).
Procedure, shortened: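 Homogeneous kinetic assay of primer extension and strand displacement by 10 nM Pol beta, preincubated 15 min at room temperature with compound before 50 nM substrate (final) was added. Read at 0 and 10 min; four-parameter Hill fit.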
% is set by controls: 0 for no effect and ±100 for the full control effect; potency is the fitted concentration of half-maximal effect.

Compound | Potency | activity change, negative = inhibition
COc1ccccc1-n1cnnc1SCC(=O)NCc1cccs1 | inactive | –
Cc1ccc(C(=O)COC(=O)CNC(=O)c2cccs2)cc1 | inconclusive: 5.01 µM [inhibitor, single point] | –
Cc1nn(CC(=O)NCc2cccc(Br)c2)c(=O)c2c1sc1ccccc12 | active: 6.31 µM | –
CCn1c2ccccc2c2nnc(SCc3ccccc3)nc21 | inconclusive: 4.47 µM [inhibitor, single point] | –
Cc1cc(C)cc(-n2c3nc4ccccc4nc3c3c(=O)n(Cc4ccco4)cnc32)c1 | active: 35.5 µM | –
CC(=O)Nc1ccc(NC(=O)c2cc(-c3ccc(C)c(C)c3O)n[nH]2)cc1 | inactive | –
COc1ccc2c(c1OC)C(=O)OC2Nc1nc(-c2cc3cc(Br)ccc3oc2=O)cs1 (stereo unspecified) | – | inconclusive: -55.1% [inhibitor]
CCOc1ccc(NC(=S)Nc2ccc3nsnc3c2)cc1 | inconclusive: 89.1 µM [inhibitor, single point] | –
Cc1ccc(N(Cc2cccs2)C(=O)Nc2cccc(Cl)c2)cc1 | inconclusive: 89.1 µM [inhibitor, single point] | –
O=C(Nc1ccc(-c2nc3ccccc3s2)c(O)c1)C1=COCCO1 | inconclusive: 3.55 µM [inhibitor, full curve] | –
COC(=O)c1[nH]c2ccc(C)cc2c1NC(=O)CN1CCN(c2ccccc2)CC1 | inconclusive: 79.4 µM [inhibitor, single point] | –
O=C(N/N=C/c1cccs1)c1cc(-c2ccncc2)nc2ccccc12 | inconclusive: 39.8 µM [inhibitor, partial curve] | –
Cc1ccc(C)c(N2CCN(S(=O)(=O)c3ccc(-c4cc(C(F)(F)F)on4)s3)CC2)c1 | inconclusive: 79.4 µM [inhibitor, single point] | –
O=C1C2CCCCN2C(=O)N1CCCCN1CCN(c2cccc(Cl)c2)CC1 (stereo unspecified) | inactive | –
O=c1cc(-c2ccccc2)nc2cc(-c3ccco3)[nH]n12 | active: 50.1 µM | –
COC(=O)c1sccc1NC(=O)c1cc(OC)cc(OC)c1 | inconclusive: 10 µM [inhibitor, partial curve, poor fit] | –
Cc1cc2c(N)cccc2nn1 | active: 22.4 µM | –
O=C(Nc1ccc(Oc2ccccc2)cc1)C1CCCO1 (stereo unspecified) | active: 79.4 µM | –
COC(=O)c1nnn(-c2nonc2N)c1CSc1nc2ccccc2o1 | inconclusive: 0.141 µM [inhibitor, full curve, poor fit] | –
Cc1ccc(Cl)cc1N1CCN(S(=O)(=O)c2ccc3[nH]c(=O)c(=O)[nH]c3c2)CC1 | inconclusive: 89.1 µM [inhibitor, single point] | –
Nc1ccc(-c2nc3ccc(C(=O)O)cc3s2)cc1 | inconclusive: 50.1 µM [inhibitor, partial curve] | –
NC(=O)c1ccc(NC(=O)COC(=O)CCCN2C(=O)c3cccc4cccc(c34)C2=O)cc1 | inconclusive: 79.4 µM [inhibitor, single point] | –

Reprinted at random: three compounds from above.
Compound | Potency | activity change, negative = inhibition
CC(=O)Nc1ccc(NC(=O)c2cc(-c3ccc(C)c(C)c3O)n[nH]2)cc1 | inactive | –
Cc1ccc(Cl)cc1N1CCN(S(=O)(=O)c2ccc3[nH]c(=O)c(=O)[nH]c3c2)CC1 | inconclusive: 89.1 µM [inhibitor, single point] | –
O=C1C2CCCCN2C(=O)N1CCCCN1CCN(c2cccc(Cl)c2)CC1 (stereo unspecified) | inactive | –

Remaining list, next part

Compound | Potency | activity change, negative = inhibition
O=C(CSc1nc2c(c(=O)n1-c1ccc(Cl)cc1)SCC2)NCc1ccco1 | inconclusive: 39.8 µM [inhibitor, single point] | –
COc1cccc2nc3cc(C)c(C)cc3nc12 | inconclusive: 31.6 µM [inhibitor, single point] | –
Cc1ccc(NC(=O)C2CCN(S(=O)(=O)c3cccc4nonc34)CC2)c(Cl)c1 | inactive | –
CN(c1ccccc1)S(=O)(=O)c1ccc(Cl)c(C(=O)OCC(=O)NCc2ccco2)c1 | inactive | –
CC1(C)C(=O)Nc2ccccc2N1C(=O)COC(=O)c1cc(S(=O)(=O)N2CCOCC2)ccc1F | active: 39.8 µM | –
COc1ccc(-c2cc3c(=O)n(CC(=O)Nc4ccc(Br)c(C)c4)ccn3n2)cc1OC | inactive | –
O=C(CSCc1ccc(F)cc1)N1CCc2c([nH]c3ccccc23)C1c1ccc(F)cc1 (stereo unspecified) | inactive | –
COc1ccc(S(=O)(=O)CC(=O)c2cc3cccc(C)c3oc2=O)cc1 | inconclusive: 56.2 µM [inhibitor, single point] | –
Cc1ccc(OCC(=O)Nc2sc3c(c2C#N)CCC3)cc1C | inconclusive: 10 µM [inhibitor, partial curve] | –
O=C(Nc1cccc(Cl)c1)c1cc(-c2ccc3c(c2)OCCO3)on1 | inconclusive: 39.8 µM [inhibitor, partial curve] | –
Cc1nnc(N2CCCC(C(=O)Nc3cccc(C(F)(F)F)c3)C2)c2nn(-c3ccccc3)c(C)c12 (stereo unspecified) | inconclusive: 0.126 µM [inhibitor, full curve, poor fit] | –
COc1ccc(Nc2cc(C(=O)N3CCc4ccccc4C3)c3ccccc3n2)c(OC)c1 | inconclusive: 2.82 µM [inhibitor, single point] | –
O=[N+]([O-])c1cccc(N=NN(CCO)c2cccc([N+](=O)[O-])c2)c1 | inconclusive: 70.8 µM [inhibitor, single point] | –
Cc1cc(O)c(C(C)C)cc1NC(=O)c1cccc(Cl)c1 | inconclusive: 10 µM [inhibitor, partial curve] | –
CC(=O)OCC(=O)[C@@]1(O)CC[C@H]2[C@@H]3CCC4=CC(=O)C=C[C@]4(C)[C@@]3(Cl)[C@@H](Cl)C[C@@]21C | inconclusive: 7.94 µM [inhibitor, partial curve] | –
Cc1cc(C(=O)CN2C(=O)NC3(CCCC3)C2=O)c(C)n1-c1ccc2c(c1)OCO2 | inconclusive: 1.41 µM [inhibitor, full curve] | –
Cc1ccc(C)c(Oc2cc(NC(=O)CCCn3nc(C)c([N+](=O)[O-])c3C)cc([N+](=O)[O-])c2)c1 | inconclusive: 89.1 µM [inhibitor, single point] | –
Cc1cccc(Nc2nnc(SC/C(O)=C(\C#N)c3nc4ccccc4[nH]3)s2)c1 | inconclusive: 50.1 µM [inhibitor, partial curve] | –
COc1ccc(NC(=O)CCNC(C)=O)cc1NS(=O)(=O)c1ccc(F)cc1 | inconclusive: 7.08 µM [inhibitor, full curve, poor fit] | –
O=C(CCN1C(=O)/C(=C/c2ccccc2Cl)SC1=S)N1CCOCC1 | inconclusive: 0.891 µM [inhibitor, full curve, poor fit] | –
Cc1ccc(N(C)S(=O)(=O)c2ccc3[nH]c4c(c3c2)CCCC4)cc1 | inactive | –
COc1cc(C(c2c(C)[nH][nH]c2=O)c2c(C)[nH][nH]c2=O)ccc1OS(=O)(=O)c1ccc(C)cc1 | inactive | –

Compound | Potency | activity change, negative = inhibition
COc1ccc(C(C(=O)NCC2CCCO2)N(C(=O)Cn2nnc3ccccc32)c2ccc(NC(C)=O)cc2)c(OC)c1 (stereo unspecified) | inconclusive: 17.8 µM [inhibitor, partial curve, poor fit] | –
Brc1ccc(C=Nc2ccc(Nc3ccccc3)cc2)s1 | inconclusive: 89.1 µM [inhibitor, single point] | –
Cc1cc(Sc2ccc(Cl)cc2)nc2ccccc12 | – | inconclusive: -32.7% [inhibitor]
Cc1cc(=O)n2[nH]nnc2n1 | inconclusive: 100 µM [inhibitor, single point] | –
Cc1ccc(S(=O)(=O)N(C)CC(=O)NC2CCCC2)cc1 | inconclusive: 28.2 µM [inhibitor, partial curve, poor fit] | –
COc1ccccc1OCC(=O)Nc1ccc(S(=O)(=O)NC(C)=O)cc1 | inconclusive: 20 µM [inhibitor, partial curve, poor fit] | –
CCOC(=O)c1ccc(NC(=O)c2cccc3c2C(=O)N(CC2CCCO2)C3)cc1 (stereo unspecified) | inconclusive: 39.8 µM [inhibitor, partial curve, poor fit] | –
O=C1/C(=C\c2c(NCCOCCO)nc3ccccn3c2=O)SC(=S)N1Cc1ccco1 | active: 17.8 µM | –
Clc1ccc(OCc2nc3ccccc3[nH]2)cc1 | inconclusive: 39.8 µM [inhibitor, single point] | –
Cc1cccc(NC(=O)c2sc3nc4c(cc3c2N)CCCCCC4)c1C | inconclusive: 0.891 µM [inhibitor, single point] | –
COC(=O)c1c(NC(=O)Cc2coc3ccc(C)cc23)sc2c1CCC2 | inconclusive: 3.55 µM [inhibitor, single point] | –
CC(=O)c1ccc(S(=O)(=O)N(CCCO)Cc2cc3cc4c(cc3[nH]c2=O)OCCO4)cc1 | inconclusive: 100 µM [inhibitor, single point] | –
CN(C(=O)CC1C(=O)NCCN1Cc1ccc(F)cc1Cl)C1CCCCC1 (stereo unspecified) | – | inconclusive: -50.9% [inhibitor]
COc1ccc(NC(=O)c2cc3ccccc3o2)cn1 | inactive | –
COc1ccc(-n2nc(C(=O)Nc3ccc(Cl)cn3)c3c4ccccc4n(C)c3c2=O)cc1Cl | inactive | –
CN(Cc1ccccc1)c1ccc(-c2nc(-c3ccco3)no2)cc1[N+](=O)[O-] | inactive | –
Cc1cc(C(=O)CSc2n[nH]c(N)n2)c(C)n1-c1cc(F)ccc1F | inconclusive: 89.1 µM [inhibitor, single point] | –
COc1cc(C)ccc1OCCCn1c(-c2ccc(Cl)cc2)nc2ccccc2c1=O | inconclusive: 0.112 µM [inhibitor, full curve, poor fit] | –
Cc1cc(C)nc(-n2nc(C)cc2NC(=O)c2cccc(S(=O)(=O)N3CCCCC3)c2)n1 | inconclusive: 11.2 µM [inhibitor, partial curve] | –
CCc1nn(CC(=O)NC(C)CC)c(=O)c2cc3c(OC)cccc3n12 (stereo unspecified) | inactive | –
COc1ccc(C(=O)COC(=O)C(CCCCN2C(=O)C3C4C=CC(C4)C3C2=O)N2C(=O)C3C4C=CC(C4)C3C2=O)cc1 (stereo unspecified) | inactive | –
Cc1ccc(N)cc1S(=O)(=O)N(C)C | inactive | –
